Measured values published in patent US20260027116A1, “Methods of Treating Chronic Graft-Versus-Host Disease Following Allogeneic Hematopoietic Stem Cell Transplantation” (Kadmon Corporation, LLC, priority 2022, published 2026).
This continues a long series; more values of the same kind are listed elsewhere.

Legend:
lung function = assay: Example 1: percent predicted TLC change from baseline; type: in vivo, human; conditions: mean (SD)
Description: Change From Baseline in Percent Predicted Total Lung Capacity (TLC) at Each Specified Time Points. TLC is the volume of air in the lungs upon the maximum effort of inspiration. Baseline value was defined as valid and last non-missing value obtained within 28 days prior to participant receiving first study medication. EOT visit was performed within 3 days after the participant's last dose of study drug. […] Analysis was performed on mITT population. Here, ‘number analyzed’=participants with available data for each specified category. Here, ‘0’ in the number analyzed field signifies that none of the participants were available for the analysis at the specified time points.

cGVHD symptom burden = assay: Example 1: Lee Symptom Scale (LSS) score; type: in vivo, human
Description: Lee Symptom Scale (LSS) summary score measures the effect on patients' functioning and well-being. The Lee Symptom Scale is a 30-item scale developed to measure the symptoms of cGVHD and is described in Lec S J, Cook E F, Soiffer R, Antin J H. Development and validation of a scale to measure symptoms of chronic graft-versushost disease. Biol Blood Marrow Transplant 2002; 8:444-452.
All responses were assessed by the investigators.
Change From Baseline in Overall Score on Lee cGvHD Symptom Scale at Specified Time Points. Lee cGVHD symptom scale, a patient-reported symptom scale used to measure symptom burden and has 7 subscales (Skin, Eyes and Mouth, Breathing, Eating and Digestion, Muscles and Joints, Energy, and Mental and Emotional) with ratings as follows: 0—Not at all, 1—Slightly, 2—Moderately, 3—Quite a bit, 4—Extremely, with lower values representing better outcome. Score for each subscale was normalized to a score ranged from 0 to 100, where higher score=worse symptoms. An overall score was calculated as average of these 7 subscales. EOT visit was performed within 3 days after the participant's last dose of study drug. Baseline value was defined as valid and last non-missing value obtained within 28 days prior to participant receiving first study medication. […] Analysis was performed on mITT population. Here, ‘number analyzed’=participants with available data for each specified category. Here, ‘0’ in the number analyzed field signifies that none of the participants were available for the analysis at the specified time points.

CC(C)NC(=O)COc1cccc(-c2nc(Nc3ccc4[nH]ncc4c3)c3ccccc3n2)c1 [Belumosudil, 2-{3-[4-(1H-indazol-5-ylamino)-2-quinazolinyl]phenoxy}-N-(propan-2-yl) acetamide]
Change From Baseline in Percent Predicted Total Lung Capacity (TLC) (lung function; Cohort 1: 200 mg QD, Cycle 37, Day 1): −7.0 (—) Percent Predicted TLC | Change From Baseline in Percent Predicted Total Lung Capacity (TLC) (lung function; Cohort 1: 200 mg QD, Cycle 38, Day 1): 2.0 (—) Percent Predicted TLC | Change From Baseline in Percent Predicted Total Lung Capacity (TLC) (lung function; Cohort 1: 200 mg QD, Cycle 39, Day 1): 24.0 (28.3) Percent Predicted TLC | Change From Baseline in Percent Predicted Total Lung Capacity (TLC) (lung function; Cohort 1: 200 mg QD, Cycle 40, Day 1): 0.0 (—) Percent Predicted TLC | Change From Baseline in Percent Predicted Total Lung Capacity (TLC) (lung function; Cohort 1: 200 mg QD, Cycle 41, Day 1): 38.0 (—) Percent Predicted TLC | Change From Baseline in Percent Predicted Total Lung Capacity (TLC) (lung function; Cohort 1: 200 mg QD, Cycle 43, Day 1): 33.0 (—) Percent Predicted TLC | Change From Baseline in Percent Predicted Total Lung Capacity (TLC) (lung function; Cohort 1: 200 mg QD, Cycle 47, Day 1): 19.0 (—) Percent Predicted TLC | Change From Baseline in Percent Predicted Total Lung Capacity (TLC) (lung function; Cohort 2: 200 mg BID, Cycle 37, Day 1): −41.0 (—) Percent Predicted TLC | Change From Baseline in Percent Predicted Total Lung Capacity (TLC) (lung function; Cohort 2: 200 mg BID, Cycle 39, Day 1): −30.0 (21.2) Percent Predicted TLC | Change From Baseline in Percent Predicted Total Lung Capacity (TLC) (lung function; Cohort 2: 200 mg BID, Cycle 43, Day 1): −16.0 (—) Percent Predicted TLC | Change From Baseline in Percent Predicted Total Lung Capacity (TLC) (lung function; Cohort 3: 400 mg QD, Cycle 39, Day 1): 23.0 (—) Percent Predicted TLC | Change From Baseline in Percent Predicted Total Lung Capacity (TLC) (lung function; Cohort 3: 400 mg QD, Cycle 43, Day 1): 21.0 (—) Percent Predicted TLC | Change From Baseline in Percent Predicted Total Lung Capacity (TLC) (lung function; Cohort 3: 400 mg QD, Cycle 47, Day 1): 25.0 (—) Percent Predicted TLC | Change From Baseline in Overall Score on Lee cGvHD Symptom Scale, Mean (Standard Deviation) (cGVHD symptom burden; Cohort 1: 200 mg QD, Cycle 17, Day 1): −4.1 (17.2) score on a scale | Change From Baseline in Overall Score on Lee cGvHD Symptom Scale, Mean (Standard Deviation) (cGVHD symptom burden; Cohort 1: 200 mg QD, Cycle 18, Day 1): −2.3 (17.6) score on a scale | Change From Baseline in Overall Score on Lee cGvHD Symptom Scale, Mean (Standard Deviation) (cGVHD symptom burden; Cohort 1: 200 mg QD, Cycle 19, Day 1): −7.7 (19.6) score on a scale | Change From Baseline in Overall Score on Lee cGvHD Symptom Scale, Mean (Standard Deviation) (cGVHD symptom burden; Cohort 1: 200 mg QD, Cycle 20, Day 1): −4.6 (22.0) score on a scale | Change From Baseline in Overall Score on Lee cGvHD Symptom Scale, Mean (Standard Deviation) (cGVHD symptom burden; Cohort 1: 200 mg QD, Cycle 21, Day 1): −3.1 (19.1) score on a scale | Change From Baseline in Overall Score on Lee cGvHD Symptom Scale, Mean (Standard Deviation) (cGVHD symptom burden; Cohort 1: 200 mg QD, Cycle 22, Day 1): −4.1 (18.9) score on a scale | Change From Baseline in Overall Score on Lee cGvHD Symptom Scale, Mean (Standard Deviation) (cGVHD symptom burden; Cohort 1: 200 mg QD, Cycle 23, Day 1): −4.1 (19.1) score on a scale | Change From Baseline in Overall Score on Lee cGvHD Symptom Scale, Mean (Standard Deviation) (cGVHD symptom burden; Cohort 1: 200 mg QD, Cycle 24, Day 1): −6.7 (21.0) score on a scale | Change From Baseline in Overall Score on Lee cGvHD Symptom Scale, Mean (Standard Deviation) (cGVHD symptom burden; Cohort 1: 200 mg QD, Cycle 25, Day 1): 2.2 (18.8) score on a scale | Change From Baseline in Overall Score on Lee cGvHD Symptom Scale, Mean (Standard Deviation) (cGVHD symptom burden; Cohort 1: 200 mg QD, Cycle 26, Day 1): 1.3 (14.3) score on a scale | Change From Baseline in Overall Score on Lee cGvHD Symptom Scale, Mean (Standard Deviation) (cGVHD symptom burden; Cohort 2: 200 mg BID, Cycle 17, Day 1): −10.1 (5.5) score on a scale | Change From Baseline in Overall Score on Lee cGvHD Symptom Scale, Mean (Standard Deviation) (cGVHD symptom burden; Cohort 2: 200 mg BID, Cycle 18, Day 1): −11.5 (8.4) score on a scale | Change From Baseline in Overall Score on Lee cGvHD Symptom Scale, Mean (Standard Deviation) (cGVHD symptom burden; Cohort 2: 200 mg BID, Cycle 19, Day 1): −9.9 (7.8) score on a scale | Change From Baseline in Overall Score on Lee cGvHD Symptom Scale, Mean (Standard Deviation) (cGVHD symptom burden; Cohort 2: 200 mg BID, Cycle 20, Day 1): −9.0 (10.3) score on a scale | Change From Baseline in Overall Score on Lee cGvHD Symptom Scale, Mean (Standard Deviation) (cGVHD symptom burden; Cohort 2: 200 mg BID, Cycle 21, Day 1): −7.5 (10.7) score on a scale | Change From Baseline in Overall Score on Lee cGvHD Symptom Scale, Mean (Standard Deviation) (cGVHD symptom burden; Cohort 2: 200 mg BID, Cycle 22, Day 1): −14.5 (9.1) score on a scale | Change From Baseline in Overall Score on Lee cGvHD Symptom Scale, Mean (Standard Deviation) (cGVHD symptom burden; Cohort 2: 200 mg BID, Cycle 23, Day 1): −11.6 (9.3) score on a scale | Change From Baseline in Overall Score on Lee cGvHD Symptom Scale, Mean (Standard Deviation) (cGVHD symptom burden; Cohort 2: 200 mg BID, Cycle 24, Day 1): −18.7 (—) score on a scale | Change From Baseline in Overall Score on Lee cGvHD Symptom Scale, Mean (Standard Deviation) (cGVHD symptom burden; Cohort 2: 200 mg BID, Cycle 25, Day 1): −12.4 (8.2) score on a scale | Change From Baseline in Overall Score on Lee cGvHD Symptom Scale, Mean (Standard Deviation) (cGVHD symptom burden; Cohort 3: 400 mg QD, Cycle 17, Day 1): 0.0 (12.5) score on a scale | Change From Baseline in Overall Score on Lee cGvHD Symptom Scale, Mean (Standard Deviation) (cGVHD symptom burden; Cohort 3: 400 mg QD, Cycle 18, Day 1): −2.3 (7.8) score on a scale | Change From Baseline in Overall Score on Lee cGvHD Symptom Scale, Mean (Standard Deviation) (cGVHD symptom burden; Cohort 3: 400 mg QD, Cycle 19, Day 1): −6.6 (9.9) score on a scale
